# Record: PubChem BioAssay AID1224828 (NIAID, 2016)
# Aim: 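Knock-downs that increase or decrease LPS-induced p65 nuclear translocation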 (primary screen)
# Cell system: mouse RAW264.7 G9 macrophage reporter cells (GFP-p65, Tnf promoter-mCherry)
# Reagent: siRNA pool against mouse genes, 100 nM
# Timing: 2 days siRNA transfection, then 40 min LPS before fixation
# Treatment: LPS (Salmonella minnesota R595) at 10 ng/ml
# Measurement: 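Imaged p65 nuclear translocation ratio, normalised to the plate median, converted to robust z-scores and averaged across two replicates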
# Scale: p65 translocation robust z-score: higher = more nuclear NF-kappaB p65 after LPS than the plate median; nuclear/cytoplasmic p65 ratio: higher = more nuclear NF-kappaB p65
# Active means: 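Active if robust z is above 3.3 (negative regulators) or below -1.56, the Tlr4 control median (positive regulators); activity score 50 or more; control wells not called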
# Calls: active = hit (p65 shift raised or lowered); inactive = no clear change
# This is one part, drawn at random, of about 17,000 reagents tested. 762 of them (4.5%) count as active. 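Active calls include both raised and lowered p65 entry, mostly lowered; wells with fewer than 50 cells lack a z-score.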 The raw values are shown without normalisation. A number with no mark means an inactive call.
Gene,p65 translocation robust z-score,"nuclear/cytoplasmic p65 ratio, rep 1","nuclear/cytoplasmic p65 ratio, rep 2",low cell count flag
Pja2 (praja ring finger ubiquitin ligase 2),1.1,1.6,1.27,enough cells to score
Mme (membrane metallo endopeptidase),-0.24,1.37,1.35,enough cells to score
Sh2b1 (SH2B adaptor protein 1),,1.28,1.17,fewer than 50 cells per well; well left out of scoring
Cript (cysteine-rich PDZ-binding protein),,1.11,1.44,fewer than 50 cells per well; well left out of scoring
Ccn1 (cellular communication network factor 1),-0.4,1.4,1.35,enough cells to score
4930519G04Rik (RIKEN cDNA 4930519G04 gene),,1.21,1.37,fewer than 50 cells per well; well left out of scoring
Trpv5,0.3,1.54,1.56,enough cells to score
Net1 (neuroepithelial cell transforming gene 1),0.81,1.48,1.51,enough cells to score
"Me3 (malic enzyme 3, NADP(+)-dependent, mitochondrial)",0.05,1.53,1.59,enough cells to score
Or2ag12 (olfactory receptor family 2 subfamily AG member 12),,1.29,1.11,fewer than 50 cells per well; well left out of scoring
Clasrp (CLK4-associating serine/arginine rich protein),,1.4,1.24,fewer than 50 cells per well; well left out of scoring
Slc39a1,,1.91,1.56,fewer than 50 cells per well; well left out of scoring
"Fam149a (family with sequence similarity 149, member A)",0.77,1.71,1.95,enough cells to score
Or3a1b (olfactory receptor family 3 subfamily A member 1B),-1.85 (active),1.35,1.17,enough cells to score
Or6c38 (olfactory receptor family 6 subfamily C member 38),,1.35,1.16,fewer than 50 cells per well; well left out of scoring
Efhd1 (EF hand domain containing 1),-0.28,1.29,1.33,enough cells to score
"Gbe1 (1,4-alpha-glucan branching enzyme 1)",0.09,1.49,1.34,enough cells to score
"Clcn6 (chloride channel, voltage-sensitive 6)",-0.38,1.58,1.68,enough cells to score
"Tbc1d2 (TBC1 domain family, member 2)",,1.21,1.69,fewer than 50 cells per well; well left out of scoring
Heph (hephaestin),0.61,1.86,1.52,enough cells to score
Vps35l (VPS35 endosomal protein sorting factor like),-0.07,1.43,1.52,enough cells to score
Dus4l (dihydrouridine synthase 4 like),-1.22,1.2,1.22,enough cells to score
"Larp6 (La ribonucleoprotein 6, translational regulator)",0.23,1.32,1.57,enough cells to score
"St3gal2 (ST3 beta-galactoside alpha-2,3-sialyltransferase 2)",1.53,1.61,1.43,enough cells to score
